Assay results as given in PubChem BioAssay AID652054 (National Center for Advancing Translational Sciences (NCATS), 2013).
Out of some 360,000 compounds screened, about 9,100 (2.5%) were called active. Inconclusive means that the source gave no clear call. Such entries were picked first, then a sample of the others. Rule as the data show it: active = max response below about -50%; inconclusive = no clear call, values can overlap the other calls; inactive = above that.

Amino acid sequences for entries named in this document (tags omitted).
UniProt P35462, whole entry, looked up: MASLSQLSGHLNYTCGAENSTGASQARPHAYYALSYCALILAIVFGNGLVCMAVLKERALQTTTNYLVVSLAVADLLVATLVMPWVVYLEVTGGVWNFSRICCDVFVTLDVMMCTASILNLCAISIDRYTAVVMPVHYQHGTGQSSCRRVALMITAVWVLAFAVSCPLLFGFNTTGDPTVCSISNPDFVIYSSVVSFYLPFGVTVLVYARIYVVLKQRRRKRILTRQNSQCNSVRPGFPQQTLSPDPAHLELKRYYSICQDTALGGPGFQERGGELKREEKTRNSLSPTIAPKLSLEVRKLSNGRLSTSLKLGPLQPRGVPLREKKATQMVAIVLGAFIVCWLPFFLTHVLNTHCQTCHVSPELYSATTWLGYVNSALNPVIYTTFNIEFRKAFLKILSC

What follows are compounds tested against D(3) dopamine receptor (Homo sapiens) (UniProt P35462) (assay: qHTS of D3 Dopamine Receptor Antagonist: qHTS). Details: D3R cells, DiscoveRx beta-arrestin luminescence, antagonist mode; active compounds read low.
Method in brief: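 Cells expressing the human receptor were seeded at 1500 cells/well, incubated overnight at 37 degrees C in 5% CO2, then exposed to library compounds with dopamine controls for 90 minutes at 37 degrees C before luminescent detection.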
% is scaled to controls: 0 for no effect and ±100 for the full control effect.

SMILES | max response, negative = inhibition
CCOc1cc(C(=O)N/N=C/c2ccoc2)cc(OCC)c1OCC | active: -70.4%
O=C(Nc1nc2ccccc2n1CCOc1ccccc1)c1ccco1 | inconclusive: -37.2%
Cc1cccc(N2CCN(CC(=O)NCc3ccccc3)CC2)c1C | inconclusive: -40%
Cc1ccccc1C(=O)Nc1ccc(N2CCCCCC2)cc1 | inconclusive: -38.4%
O=C(CSc1ncccn1)Nc1ccc(N2CCOCC2)cc1 | inconclusive: -35.4%
CC1CCN(C(=O)c2ccc3c(c2)C(=O)c2ccccc2-3)CC1 | inactive: -22.7%
NC1=NN=C(N2N=C(c3ccco3)CC2(O)C(F)(F)F)n2ncnc2C1 (stereo unspecified) | inconclusive: -35.6%
CCOC(=O)c1ccc(-n2ccnc2)c(NC(=O)c2ccc(C(C)(C)C)cc2)c1 | inconclusive: -37.6%
CC1CC(C)(C)N(C(=O)CSc2ccc(-c3ccc(F)cc3)nn2)c2ccccc21 (stereo unspecified) | inactive: 16.6%
Cc1ccc(NC(=O)CSCC(=O)N(C)Cc2c(F)cccc2Cl)cc1 | inconclusive: -31.9%
O=C(Nc1ccc(N2CCOCC2)cc1)c1ccc([N+](=O)[O-])o1 | inconclusive: -33.9%
CCN1CCN(C(=O)CSc2cc(=O)n(CC)c3ccccc23)CC1 | inconclusive: -34.9%
CC(C)(CN1CCCCC1)NS(=O)(=O)c1ccc(Cl)cc1 | inconclusive: -32.1%
CCC1(c2ccccc2)NC(=O)N(CC(=O)Nc2cc(Cl)ccc2N2CCN(C)CC2)C1=O (stereo unspecified) | inconclusive: -40.7%
CN(C(=O)c1cccc(NC(=O)Cc2cccc(NC(=O)C3CCN(C(=O)C4CC4)CC3)c2)c1)C1CCC1 | inactive: -3.02%
CC(=O)OCCC(NS(=O)(=O)OCC(Cl)(Cl)Cl)c1ccccc1 (stereo unspecified) | inconclusive: -39.4%
O=C(O)C1C2C=CC(C3CC23)C1C(=O)NCCc1ccccc1 (stereo unspecified) | inconclusive: -46.9%
O=C(c1cc(COc2ccc(F)cc2Cl)on1)N1CCN(C2CCCC2)CC1 | inactive: -9.14%
O=C(c1cc2sccc2n1Cc1ccc(F)cc1)N1CCCc2ccccc21 | inconclusive: -37.5%
C#CCOCCOCCOCCNc1nc(N2CCN(C(=O)CCCCCCCCCCNC(=O)[C@@H](CCSC)n3cc(CCO)nn3)CC2)nc(N2CCN(C(=O)CCCCCCCCCCNC(=O)[C@H](CCC(=O)O)n3cc(CCCCCN)nn3)CC2)n1 | inactive: 12.5%
CC1(c2nnnn2Cc2ccccc2)CCC(=O)N1CCOc1ccccc1 (stereo unspecified) | inconclusive: -38.8%
Cn1c(SCC(=O)NCc2ccco2)nnc1-c1ccccc1 | inconclusive: -33.2%

SMILES | max response, negative = inhibition
CCOC(=O)[C@]12CCCC=C1N(Cc1ccccc1)C(=O)[C@H](CC(=O)NCCCN1CCCC1=O)C2 | inactive: 17.4%
O=C(CN1CCN(S(=O)(=O)c2ccc(Cl)cc2)CC1)NC(=O)NC1CCCCC1 | inactive: 16.4%
CCC(c1nnnn1-c1ccc2c(c1)OCCO2)N1CCN(c2ncccn2)CC1 (stereo unspecified) | inconclusive: -45.7%
CCCc1cc(=O)oc2cc(OCC(=O)NCCc3c[nH]c4ccccc34)ccc12 | inconclusive: -41.1%
Cc1cc(NC(=O)CCCSc2nc(-c3ccco3)cc(C(F)(F)F)n2)no1 | inconclusive: -36.7%
Cc1ccc2nc(N(CCCN(C)C)C(=O)c3cc4ccccc4oc3=O)sc2c1 | inactive: -0.464%
CCCCNCc1ccc(SC)cc1 | inconclusive: -39.2%
OC(COc1cc(Cl)c(Cl)cc1Cl)CN1CCN(c2ncccn2)CC1 (stereo unspecified) | inconclusive: -32.4%
O=C(CCN1C(=O)/C(=C\c2ccc(F)cc2)SC1=S)Nc1ccc(O)cc1 | inconclusive: -30.6%
CC(C)c1ccc(CC(=O)N2CCC2(C)C(=O)NS(=O)(=O)c2ccc(Cl)s2)cc1 (stereo unspecified) | inactive: -1.57%
COc1cc(Cl)ccc1OC1(C)CCN(Cc2ccc(-c3ccccn3)cc2)C1 (stereo unspecified) | inconclusive: -35.5%
CCC(c1nnnn1C1CCCC1)N1CCN(c2ccccc2F)CC1 (stereo unspecified) | inactive: 0%
CCOC(=O)N1CCN(C2=C(NS(=O)(=O)c3ccc(C)cc3)C(=O)c3ccccc3C2=O)CC1 | inconclusive: -32.2%
Cc1ccc(C)n1-n1c(C)nc2scc(-c3ccccc3)c2c1=O | inconclusive: -47.7%
Cc1ccc(S(=O)(=O)N2CCN(S(=O)(=O)N3CCOCC3)CC2)cc1 | active: -75.3%
Cc1cc(C)cc(-n2c(C)cc(/C=N/NC(=O)CN(c3c(C)cccc3C)S(C)(=O)=O)c2C)c1 | inconclusive: -37.7%
CCc1ccc(S(=O)(=O)NCCOc2cccc3cccnc23)cc1 | inactive: -5.72%
CCn1c(SCC(=O)Nc2nc3ccc(OC)cc3s2)nnc1-c1ccoc1C | inconclusive: -40.8%
C=CCOc1c(Cl)cc(CNn2cn[nH]c2=S)cc1OC | inactive: -1.22%
Cn1c(=O)[nH]c(=O)c2c1nc(Br)n2C/C=N/Nc1ccccc1 | inconclusive: -31.6%
COc1ccc(S(=O)(=O)N2CC(C(=O)O)Oc3ccccc32)cc1 (stereo unspecified) | inactive: -6.04%
CCCCNC(=O)c1cc(-c2ccc(F)cc2)on1 | inactive: -17%

Given with tabs: entries from further up.
SMILES	max response, negative = inhibition
CCc1ccc(S(=O)(=O)NCCOc2cccc3cccnc23)cc1	inactive: -5.72%
CCn1c(SCC(=O)Nc2nc3ccc(OC)cc3s2)nnc1-c1ccoc1C	inconclusive: -40.8%
C=CCOc1c(Cl)cc(CNn2cn[nH]c2=S)cc1OC	inactive: -1.22%

(more compounds)

SMILES | max response, negative = inhibition
Oc1ccc(Cc2ccc(Cl)cc2)c(O)c1 | inactive: 0.206%
Cc1cc(NC(=O)C(C)SCC(=O)Nc2ccc(Br)cc2Br)no1 (stereo unspecified) | inactive: 3.27%
Cn1nc(C(=O)OCC(=O)Nc2ccc3ccccc3c2)c2ccccc2c1=O | inactive: 12.2%
CCCOc1ccc(C(=O)C(c2ccccc2)N2CCOCC2)cc1 (stereo unspecified) | inconclusive: -41.5%
C[C@@H]1COC(=O)[C@H](NC(=O)OCC2c3ccccc3-c3ccccc32)C/C=C\C[C@@H](CC(=O)N[C@@H](CO)Cc2ccccc2)C(=O)N1 | inactive: 0%
COc1cc(/C=C(\NC(C)=O)C(=O)Nc2ccccc2C)ccc1OC(C)=O | inconclusive: -31%
COc1cc2c(cc1NC(=O)C(Cl)Cl)-c1ccc(NC(=O)C(Cl)Cl)cc1C2 | inconclusive: -46.4%
Cc1ccc(S(=O)(=O)N2CCCCC2CCNC(=O)C(=O)NC2CCCC2)cc1 (stereo unspecified) | inactive: -13.8%
CCN(CC)S(=O)(=O)c1ccc(C(=O)NCC2CCCCC2)cc1 | inconclusive: -31.3%
O=c1c2ccccc2oc2ccc(C#CC3(O)CCCCC3)cc12 | inactive: 22.9%
COc1ccc(CC(=O)Nc2nc(C)cs2)cc1 | inactive: 13.7%
COc1ccccc1C=CC(=O)C=Cc1ccccc1OC | inconclusive: -35.5%
CC1CN(C(=O)CCC(=O)NCCCN2CCN(Cc3ccccc3)CC2)c2cc(Cl)ccc2O1 (stereo unspecified) | active: -89.9%
COc1ccc2c(c1)C(=O)C(=O)N2CC1COc2ccccc2O1 (stereo unspecified) | inconclusive: -38.3%
CN(C)S(=O)(=O)c1ccc(NC(=O)CN2CCN(c3ccccn3)CC2)cc1 | inactive: 11.3%
Cc1ccc(-c2c3c(=O)n(C)c(=O)n(C)c3cn2-n2cnnc2)cc1 | inconclusive: -45.5%
COc1ccc(N2CCN(CC(O)COc3ccc4c(c3)CCC4)CC2)cc1 (stereo unspecified) | active: -79.3%
Cc1ccc(NC2SC(=O)N(Cc3cccc(C(=O)O)c3)C2=O)cc1 (stereo unspecified) | inconclusive: -31%
CCCC[n+]1ccn(C2=C([O-])c3ccccc3C(=O)/C2=N\S(=O)(=O)c2ccccc2)c1 | inconclusive: -41.4%
O=C(CCc1ccccc1)NC(NC(=S)Nc1ccc(Br)cc1)C(Cl)(Cl)Cl (stereo unspecified) | active: -90.8%
C(=C\c1ccccc1)/CN1CCN(C(c2cccc3ccccc23)c2nnnn2-c2ccc3c(c2)OCCO3)CC1 (stereo unspecified) | active: -72.6%
CCOC(=O)C1=C(C)NC(=O)NC1/C=C/c1ccccc1 (stereo unspecified) | inconclusive: -32.6%

Given in markdown: part of the list above.

| SMILES | max response, negative = inhibition |
| --- | --- |
| CCN(CC)S(=O)(=O)c1ccc(C(=O)NCC2CCCCC2)cc1 | inconclusive: -31.3% |
| COc1ccc(N2CCN(CC(O)COc3ccc4c(c3)CCC4)CC2)cc1 (stereo unspecified) | active: -79.3% |
| CCCC[n+]1ccn(C2=C([O-])c3ccccc3C(=O)/C2=N\S(=O)(=O)c2ccccc2)c1 | inconclusive: -41.4% |

(continued)

SMILES | max response, negative = inhibition
COc1ccc(S(=O)(=O)NCC(=O)Nc2ccc3c(c2)OCCO3)cc1OC | active: -50.2%
Cn1c(=O)c(=O)n(C)c2cc(S(=O)(=O)CCC(=O)Nc3ccccc3C(F)(F)F)ccc21 | inconclusive: -49%
OC(COc1ccc(Cl)cc1)CN1CCN(c2cccc(Cl)c2)CC1 (stereo unspecified) | inconclusive: -37%
COc1ccc(-n2nc3c(c2NC(=O)c2ccc(Br)o2)CS(=O)(=O)C3)cc1 | inactive: 0.341%
C=CCc1cc(Cl)ccc1OCCNCCN1CCOCC1 | inconclusive: -40.8%
CC(C)c1ccc(C(=O)NCc2ccc(Cl)cc2)cc1 | inconclusive: -40%
N#Cc1c(N)c(C(=O)c2ccc(Br)cc2)n2c1CCC2 | inconclusive: -40.4%
CCCCOC(=O)CCc1c(C)[nH]c(=S)[nH]c1=O | inconclusive: -31.6%
Cc1ccc(S(=O)(=O)CC(c2ccccc2)N2CCCCC2)cc1 (stereo unspecified) | inactive: -17.8%
Cc1cc(C)c(Cn2cnc(-c3ccc([N+](=O)[O-])cc3)c2)c(C)c1 | inactive: -27.5%
C=CCN1CCCC1CNC(=O)c1cc2[nH]nnc2cc1OC (stereo unspecified) | active: -80.8%
COc1ccccc1NC(=O)Cc1nnc(SCC(=O)NC2=NCCS2)n1C | inactive: 1.82%
CCOc1ccc(C(=O)NCC(=O)Nc2ccncc2)cc1OCC | inactive: 3.25%
CCOC(=O)c1ccc(N2C(=O)c3n[nH]c(-c4ccco4)c3C2c2cccc([N+](=O)[O-])c2)cc1 (stereo unspecified) | inconclusive: -45.3%
CCCOc1ccc2c(CC)cc(=O)oc2c1C | inconclusive: -34.9%
Cc1cc(N(C)C)c(C#N)c(NCc2ccccc2)n1 | inconclusive: -49.1%
Cc1ccc(/C=C2\SC(=S)N(/N=C/c3cc([N+](=O)[O-])ccc3O)C2=O)o1 | active: -74.9%
CCOC(=O)C1CCCN(CCC(=O)Nc2ccc(Br)c(C)c2)C1 (stereo unspecified) | active: -54.4%
c1ccc(Cn2c(-c3ccccc3)nc3nc4ccccc4nc32)cc1 | inactive: 6.51%
CC1CCCN(c2ccc([N+](=O)[O-])cc2C(=O)c2ccccc2)C1 (stereo unspecified) | inconclusive: -42.4%
